# Data: patent publication US20190010493A1 (published 2019)
# Sequences of proteins named here, by UniProt entry; tags and fusion partners are left off. A change or cut given only in a name is not applied to a line headed by its entry.
# UniProt Q15349: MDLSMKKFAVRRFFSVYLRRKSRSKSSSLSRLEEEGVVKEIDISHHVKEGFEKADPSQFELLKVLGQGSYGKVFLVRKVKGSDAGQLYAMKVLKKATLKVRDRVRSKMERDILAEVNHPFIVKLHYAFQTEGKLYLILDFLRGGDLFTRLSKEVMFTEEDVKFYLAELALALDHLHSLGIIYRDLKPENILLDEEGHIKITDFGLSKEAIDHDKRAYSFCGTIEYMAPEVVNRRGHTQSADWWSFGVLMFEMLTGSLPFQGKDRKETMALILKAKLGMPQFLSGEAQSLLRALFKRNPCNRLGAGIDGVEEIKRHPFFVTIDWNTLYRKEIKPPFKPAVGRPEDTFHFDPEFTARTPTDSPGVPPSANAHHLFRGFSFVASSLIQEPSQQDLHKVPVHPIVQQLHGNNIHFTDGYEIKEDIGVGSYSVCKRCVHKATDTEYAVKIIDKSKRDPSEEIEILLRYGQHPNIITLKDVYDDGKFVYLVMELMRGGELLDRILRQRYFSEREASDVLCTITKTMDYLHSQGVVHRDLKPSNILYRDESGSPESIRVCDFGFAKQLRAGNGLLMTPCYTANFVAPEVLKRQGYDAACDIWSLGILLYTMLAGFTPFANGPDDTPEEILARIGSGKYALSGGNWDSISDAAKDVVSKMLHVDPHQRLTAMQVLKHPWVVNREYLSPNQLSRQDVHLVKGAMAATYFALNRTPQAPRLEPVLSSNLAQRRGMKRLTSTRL
# These are yes or no findings as the source states them, for the method shown. For some of these results: Binding seen in cells or lysates may run through a third protein. Some results given as binding are weak or reduced against the parent protein; the word gives no strength. For some of these results: Tags and fused reporters may be left off the sequences shown.
# Tests used:
# [1] = target: T1, bacterially expressed His-tagged mAKAP 1286 to 1833 (rat) (UniProt Q9WVC7); test: SPR (BIAcore T100), His-mAKAP 1286-1833 immobilised, His-RSK3 analyte
# T1 sequence: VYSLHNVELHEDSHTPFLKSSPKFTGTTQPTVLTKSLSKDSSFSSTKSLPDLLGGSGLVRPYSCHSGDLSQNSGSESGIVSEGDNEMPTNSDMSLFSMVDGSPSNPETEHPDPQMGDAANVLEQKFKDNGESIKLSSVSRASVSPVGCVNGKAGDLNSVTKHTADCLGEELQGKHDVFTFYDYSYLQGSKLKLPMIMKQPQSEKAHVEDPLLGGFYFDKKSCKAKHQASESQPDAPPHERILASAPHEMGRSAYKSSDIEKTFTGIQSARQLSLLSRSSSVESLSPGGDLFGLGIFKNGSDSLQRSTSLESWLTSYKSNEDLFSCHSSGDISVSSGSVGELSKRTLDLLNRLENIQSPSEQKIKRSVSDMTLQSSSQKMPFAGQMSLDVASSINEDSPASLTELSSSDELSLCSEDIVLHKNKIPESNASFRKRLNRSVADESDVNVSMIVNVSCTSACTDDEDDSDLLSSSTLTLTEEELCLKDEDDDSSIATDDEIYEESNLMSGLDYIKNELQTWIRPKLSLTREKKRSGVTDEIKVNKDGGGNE
# [2] = target: T2, myc-tagged mAKAP 1286 to 1833 (rat) (UniProt Q9WVC7); test: co-immunoprecipitation with myc-tag antibody, heterologous cells
# T2 sequence: T1 sequence
# [3] = target: full-length mAKAPβ (muscle A-kinase anchoring protein, beta alternatively-spliced form) (rat) (UniProt Q9WVC7); test: co-immunoprecipitation, HA-RSK co-expressed with mAKAP in HEK293 cells
# [4] = target: mAKAPα (muscle A-kinase anchoring protein, alpha alternatively-spliced form) (rat) (UniProt Q9WVC7); test: as above
binding [1],Substance,binding [2],binding [3],binding [4]
binds,bacterially expressed His-tagged full-length RSK3 (from UniProt Q15349 1-733) (enzyme),,,
,HA-tagged RSK3 (type 3 p90 ribosomal S6 kinase) (from UniProt Q15349 1-733) (enzyme),binds,binds,binds
